Values from PubChem BioAssay AID1259424 (University of Nebraska Medical Center, 2018).
Test: 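Find knockdowns that reproduce the expression shifts seen after KSR1 loss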 (primary screen). System: human HCT116 colon cancer cells. Knock-down reagent: siRNA pool against human genes, 50 nM. Detection: 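Six signature mRNAs by branched-DNA multiplex assay, scaled to two housekeeping genes and non-targeting median, log2; matched to mean KSR1 knockdown profile by Pearson correlation and euclidean distance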. Reading the numbers: mean correlation with KSR1 profile: higher = expression change more like KSR1 knockdown.
The deposit covers about 14,000 reagents; shown is a random part of them. 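Higher correlation or smaller distance means closer resemblance to KSR1 loss; control wells, including KSR1 knockdowns, recur on many plates.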 Some reagents were tested in more than one well and are listed for each. Further read-outs or replicates are left out here. The record does not give: the time to read-out.

Depletion of DPY19L1 (dpy-19 like C-mannosyltransferase 1) gave: mean correlation with KSR1 profile -0.0926. KIF13A (kinesin family member 13A) scored mean correlation with KSR1 profile -0.319. After knock-down of MYO1C (myosin IC), the screen gave mean correlation with KSR1 profile 0.2. LORICRIN (loricrin cornified envelope precursor protein) gave mean correlation with KSR1 profile -0.0272. Silencing of LGALS4 (galectin 4) resulted in: mean correlation with KSR1 profile -0.393. UEVLD (UEV and lactate/malate dehyrogenase domains) gave mean correlation with KSR1 profile 0.0973.

SNHG12 (small nucleolar RNA host gene 12) gave mean correlation with KSR1 profile 0.392. For IQGAP2 (IQ motif containing GTPase activating protein 2), the values are mean correlation with KSR1 profile 0.319. FGF2 (fibroblast growth factor 2) gave mean correlation with KSR1 profile 0.178. With knock-down of NSMCE3 (NSE3 component of SMC5/6 complex), the record shows mean correlation with KSR1 profile 0.414. Against EFCC1 (EF-hand and coiled-coil domain containing 1) the deposit lists mean correlation with KSR1 profile 0.463. After knock-down of ST8SIA2 (ST8 alpha-N-acetyl-neuraminide alpha-2,8-sialyltransferase 2), the screen gave mean correlation with KSR1 profile -0.226.

For RPL27 (ribosomal protein L27) the deposit lists mean correlation with KSR1 profile -0.265. EIF4A1 (eukaryotic translation initiation factor 4A1) showed mean correlation with KSR1 profile 0.341. Silencing of CCAR1 (cell division cycle and apoptosis regulator 1) came out at: mean correlation with KSR1 profile 0.545. With knock-down of ALDH1A3 (aldehyde dehydrogenase 1 family member A3), the record shows mean correlation with KSR1 profile -0.144. Silencing of SPRY1 (sprouty RTK signaling antagonist 1) gave: mean correlation with KSR1 profile -0.408. After knock-down of VLDLR (very low density lipoprotein receptor) the results were mean correlation with KSR1 profile 0.427.

Against ATXN7L3 (ataxin 7 like 3), the entry reads mean correlation with KSR1 profile 0.145. After knock-down of CYP2F1 (cytochrome P450 family 2 subfamily F member 1), the record shows mean correlation with KSR1 profile 0.259. For NCKIPSD (NCK interacting protein with SH3 domain), the entry reads mean correlation with KSR1 profile 0.0135. NCKIPSD (NCK interacting protein with SH3 domain) showed mean correlation with KSR1 profile -0.19. Silencing of CDK5RAP2 (CDK5 regulatory subunit associated protein 2) came out at: mean correlation with KSR1 profile 0.0946. Against TRIM22 (tripartite motif containing 22) the deposit lists mean correlation with KSR1 profile -0.563.

Against SPATC1L (spermatogenesis and centriole associated 1 like) the deposit lists mean correlation with KSR1 profile 0.846. Depletion of DHFR (dihydrofolate reductase) gave: mean correlation with KSR1 profile 0.346. Silencing of INTS1 (integrator complex subunit 1) resulted in: mean correlation with KSR1 profile -0.11. After knock-down of FAM169A (family with sequence similarity 169 member A) the results were mean correlation with KSR1 profile -0.311.

A portion from the list above:
DPY19L1 (dpy-19 like C-mannosyltransferase 1) → mean correlation with KSR1 profile = -0.0926
KIF13A (kinesin family member 13A) → mean correlation with KSR1 profile = -0.319
MYO1C (myosin IC) → mean correlation with KSR1 profile = 0.2
